Measurements from “University of Dundee, Small-Polar-MMV Screening Library” (2021), ChEMBL document CHEMBL3988442.

A: 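Phenotypic screen: M. tuberculosis growth, cholesterol and DPPC medium, 4 days; the read-out is not stated. Compounds at 50 µM. Higher reads as more growth inhibition (inferred: compounds with an IC50 in retests scored well above the rest). About 69,000 compounds were tested under these conditions; 0.54% (about 370) showed 50% or more at least once.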
B: 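Phenotypic screen: M. tuberculosis growth, glucose 7H9 medium, 3 days; the read-out is not stated. Concentration: 50 µM. Higher reads as more growth inhibition (inferred: compounds with an IC50 in retests scored well above the rest). Of about 69,000 compounds tested this way, about 760 (1.1%) reached 50% or more in at least one test.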

Results are given as percent effect.
How 0% and 100% were set is not recorded. Most values in the screen are low, and negative values occur.
Compounds were drawn at random from those tested, without regard to their results.
Two or more numbers in one place are separate tests of the same structure; such repeats can differ widely.

* Cc1nc(CN(CCS(C)(=O)=O)C(C)C)no1 : A: -13.61%; B: -4.923%
* COc1ccc2c(c1)OCC(CNC(=O)c1ccc(=O)n(C)c1)C2 (configuration not stated) : A: 4.146%; B: 5.246%
* O=C(O)C(F)(F)F.O=C(c1cnccn1)N1CCCC2(CCN(Cc3ccsc3)C2)C1 (configuration not stated) : A: -33.61%; B: -19.99%
* CC(C)NC(=O)N1CCOC2(CNC2)C1 : A: -15.98%; B: -21.11%
* Cl.Cl.O=C(NCc1cncc2c1CCN(C1CCOC1)C2)c1ccco1 (configuration not stated) : A: -21.64%; B: -25.15%
* Cc1cc(C)n(CC(C)NC(=O)c2cc(C(C)C)on2)n1 (configuration not stated) : A: 19.92%; B: 7.426%
* CNC(=O)Cc1csc(NC(=O)C2CSCCC(=O)N2)n1 (configuration not stated) : A: -19.28%; B: -12.72% & -8.081%
* O=C1CC2(CCN(C(=O)c3ccccc3)C2)Nc2ccccc2N1 (configuration not stated) : A: -26.51%; B: 6.921%
* Cn1cnc(S(=O)(=O)NCC(O)c2ccc3c(c2)CCO3)c1 (configuration not stated) : A: 1.741%; B: 16.66%
* O=C(O)C(F)(F)F.[H][C@]12CN(CCOC)C[C@@]1(C(=O)O)CCCN(c1cc(OC)ncn1)C2 : A: 48.76% & -12.18%; B: -13.64% & -52.38%
* COCc1cccc(NC(=O)NCc2ncc(C)c(OC)c2C)c1 : A: -12.64%; B: -3.45%
* Cc1ccc(CC(=O)N2CCN(CC(O)C(C)(C)C)CC2)cn1 (configuration not stated) : A: -3.112%; B: 9.331%
* CC1CN(CC(=O)NCc2cccs2)CCN1c1nccs1 (configuration not stated) : A: 2.153%; B: 14.09% & -0.6843%
* Cc1nc2cc(NC(=O)Cn3ncc(N4CCCC4)cc3=O)ccc2s1 : A: 7.208%; B: 20.98%
* O=C(NCCNS(=O)(=O)c1ccc(C(F)(F)F)cc1)c1ccoc1 : A: -9.026%; B: -6.278%
* CC(Cc1ccco1)NC(=O)CCn1cccn1 (configuration not stated) : A: -9.34%; B: -25.21%
* Cc1cncnc1C1CCN(CC2CC2)CC1 : A: 16.71%; B: 12.28%
* O=C1CC(NS(=O)(=O)c2ccc(Br)cc2)CN1 (configuration not stated) : A: 1.943%; B: 4.9%
* COc1ccccc1OC1(C(=O)O)CCN(c2nc(C)cnc2C)CC1 : A: 8.19%; B: -12.86%
* CN(CC1CCN(CCO)CC1)CC(O)c1ccc(F)cc1F (configuration not stated) : A: 19.31%; B: 11.39%
* Cn1ccc(C(=O)Nc2nc(-c3ccc(Cl)cc3)n[nH]2)cc1=O : A: -14.59%; B: -21.85% & -1.129%
* Fc1ccc(CN2CCn3cc(Cn4cccn4)nc3C2)cc1.O=C(O)C(F)(F)F : A: -17.58%; B: -1.963%
* COCCN1CCCC2(CCN(c3nccc4ccccc34)C2)C1=O (configuration not stated) : A: -14.43%; B: -26.11% & -6.209%
* Cc1nc(N2CCN(C(=O)C3CC3)CC2)c2c(n1)c(C)nn2C : A: -8.309%; B: 3.774%
* O=C(c1cccc(F)c1F)N1CCn2c(nnc2C(F)(F)F)C1 : A: 5.231%; B: -2.494% & 14.44%
* Cc1ccc2c(c1)c(CNC(=O)C1CCN(C(=O)C3CC3)CC1)nn2C : A: -4.218% & 18.04%; B: 3.28%
* N#Cc1ccc(OCCN2CCc3c(ncn3C3CC3)C2)cc1 : A: -0.08247%; B: -22.65%
* Cn1cc(-c2ncc3c(c2C(=O)O)CCN(Cc2ccccn2)C3)cn1.O=C(O)C(F)(F)F.O=C(O)C(F)(F)F : A: -45.78%; B: -33.94%
* CCS(=O)(=O)N1CCC2(CCN(Cc3cccc(OC)c3)CC2)CC1.O=C(O)C(F)(F)F : A: 4.423%; B: 15.96%
* O=S(=O)(c1cncc(F)c1)N1CCC2(CCOC2)C1 (configuration not stated) : A: -1.301%; B: 1.717% & -17.41%
* CCc1n[nH]c(C2CN(CCCS(C)(=O)=O)CCO2)n1 (configuration not stated) : A: -52.91%; B: -51.24%
* CC(C)CCn1cc(C(C(=O)O)N2CCSCC2)cn1 (configuration not stated) : A: -12.35%; B: -22.59% & -5.504%
* COCC(=O)N1CCCC(c2nc(N(C)C)ncc2-c2ccccc2)C1 (configuration not stated) : A: -21.44%; B: -7.334%
* Cc1nc(C)n(CC2CCCN(CC(=O)N3CCCC3)C2)n1 (configuration not stated) : A: -5.137%; B: -6.573%
* CS(=O)(=O)CCS(=O)(=O)Cc1cc(Cl)c2c(c1)OCCCO2 : A: -0.5585% & -0.6266%; B: 19.96%
* Cn1c(SCC(=O)NC(C)(C#N)C2CC2)nc2ccccc21 (configuration not stated) : A: -1.426%; B: 24.5% & 3.416%
* CCN(c1ccsc1C(=O)N1CCCCC1)S(=O)(=O)c1ccccc1 : A: -1.113%; B: -29.63%
* CNc1ncccc1C(=O)N1CCN(C)C2(CCN(C)CC2)C1 : A: 0.8577%; B: 9.28%
* Cc1cccnc1CN1CC[C@@](C)(O)[C@H](Oc2ccccc2)C1 : A: -4.447%; B: -19.54%
* Cc1ccc(NC2CCN(C(=O)c3cnn(C(C)(C)C)c3)CC2)nn1 : A: -15.36%; B: -38.07%